# Library screen at single concentrations

By UniProt entry, the sequences of proteins in these tests, tags left out. Residues count along the entry.
UniProt P9WPC5, whole entry: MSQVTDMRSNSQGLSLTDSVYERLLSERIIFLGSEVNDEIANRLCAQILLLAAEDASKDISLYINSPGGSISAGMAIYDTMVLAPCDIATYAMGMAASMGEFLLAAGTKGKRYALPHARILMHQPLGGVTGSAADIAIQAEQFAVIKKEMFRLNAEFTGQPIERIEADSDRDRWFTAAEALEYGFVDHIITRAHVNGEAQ
UniProt P9WPC3, whole entry partner: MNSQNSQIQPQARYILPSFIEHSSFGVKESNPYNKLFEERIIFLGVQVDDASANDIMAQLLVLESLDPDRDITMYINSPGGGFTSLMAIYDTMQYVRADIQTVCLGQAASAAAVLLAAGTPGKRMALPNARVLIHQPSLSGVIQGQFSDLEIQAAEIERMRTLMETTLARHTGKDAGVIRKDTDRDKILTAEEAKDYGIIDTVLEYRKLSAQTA
UniProt Q8IDJ8, 1-583: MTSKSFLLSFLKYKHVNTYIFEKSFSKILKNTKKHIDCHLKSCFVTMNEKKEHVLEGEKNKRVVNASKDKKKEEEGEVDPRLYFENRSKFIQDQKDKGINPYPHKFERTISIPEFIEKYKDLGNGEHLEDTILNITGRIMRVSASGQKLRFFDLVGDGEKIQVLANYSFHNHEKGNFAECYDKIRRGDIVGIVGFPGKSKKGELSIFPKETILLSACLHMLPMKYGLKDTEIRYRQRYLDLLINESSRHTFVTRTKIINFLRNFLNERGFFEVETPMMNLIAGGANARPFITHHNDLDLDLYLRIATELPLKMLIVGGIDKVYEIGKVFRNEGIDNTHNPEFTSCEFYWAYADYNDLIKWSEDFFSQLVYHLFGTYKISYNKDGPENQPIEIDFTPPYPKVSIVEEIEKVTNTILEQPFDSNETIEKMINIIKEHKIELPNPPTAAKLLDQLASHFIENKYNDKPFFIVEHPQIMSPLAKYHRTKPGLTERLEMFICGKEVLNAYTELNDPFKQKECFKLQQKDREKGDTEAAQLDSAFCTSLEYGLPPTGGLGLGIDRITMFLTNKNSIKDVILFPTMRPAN

From ChEMBL document CHEMBL3988442, “University of Dundee, Small-Polar-MMV Screening Library” (2021).

Leishmania in macrophages: 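Cell assay of Leishmania donovani living inside macrophages; the read-out is not stated. Compounds at 30 µM. The record gives no direction; compounds that gave an IC50 in retests scored well above the rest, so higher reads as stronger inhibition. Of about 69,000 compounds tested this way, about 1,000 (1.5%) reached 50% or more in at least one test.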
ClpP1P2: 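ClpP1P2, Mycobacterium tuberculosis (UniProt P9WPC5 and UniProt P9WPC3). Protease assay of ClpP1P2, read by the AMC dye that it sets free. Tested at 50 µM. Higher reads as stronger inhibition, judged from the few compounds that gave an IC50. Most other retested compounds had strongly negative values. Size under these conditions: about 69,000 compounds, about 10 of them at 50% or above in at least one test.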
Toxoplasma: 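Assay of Toxoplasma gondii numbers, read through their beta-galactosidase reporter with a colour substrate. Concentration: 10 µM. The record gives no direction; the compounds picked for IC50 retests had high values, so higher reads as fewer parasites. Of about 67,000 compounds tested this way, about 260 (0.38%) reached 50% or more in at least one test.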
PfKRS1: 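Lysine-tRNA ligase, Plasmodium falciparum 3D7 (UniProt Q8IDJ8). Enzyme assay of the cytosolic lysyl-tRNA synthetase in 384-well plates, read by luminescence. Tested at 30 µM. Direction is inferred from only a few compounds that gave an IC50; most scored high, so higher reads as stronger inhibition. Size under these conditions: about 69,000 compounds, about 49 of them at 50% or above in at least one test.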

Values are the deposited “Percent Effect”, in %. How 0% and 100% were set is not recorded. Most values in the screen are low, and negative values occur. The compounds are a random part of those screened. Two or more numbers in one place are separate tests of the same structure; such repeats can differ widely.

CC(=O)N1N=C(COc2ccc(C)cc2)OC1c1ccc(N(C)C)cc1 (configuration not stated) read Leishmania in macrophages: 54.92%; ClpP1P2: 5.997%; Toxoplasma: 19.16%; PfKRS1: 7.036%.
CNCC(=O)N1CCC(c2ccnc(Nc3ccc(C)cn3)n2)C1.Cl (configuration not stated) read Leishmania in macrophages: 33.03%; Toxoplasma: 25.94%.
CCOc1nnc(CN(CC)CC(=O)NC(C)(C)C)s1 read Leishmania in macrophages: 7.631%; ClpP1P2: 25.88%; Toxoplasma: -2.178%; PfKRS1: 6.218%.
Cn1cc(C[C@H]2[C@@H](O)CCN2C(=O)C2CC=CC2)cn1 read Leishmania in macrophages: -4.508%; ClpP1P2: 2.631%; Toxoplasma: -0.7761%; PfKRS1: 2.924%.
O=C(NCc1cccs1)[C@@H]1CC[C@@H]2[C@@H](CCN2c2ncccn2)O1 read ClpP1P2: -3.931%; PfKRS1: 3.063%.
O=S(=O)(c1cccs1)N1CCCC(c2nccs2)C1 (configuration not stated) read Leishmania in macrophages: 11.9% and 16.74%; ClpP1P2: 8.065%; Toxoplasma: -40.08%; PfKRS1: 2.926%.
CC(=O)c1ccc(Cl)c(Cl)c1OCC(=O)NC(C)C read Leishmania in macrophages: 7.754%; ClpP1P2: -7.847%; Toxoplasma: 1.872%; PfKRS1: 7.951%.
CN(CCN1CCCC1)c1nccc(N2CCN[C@H]3CS(=O)(=O)C[C@H]32)n1 read ClpP1P2: -19.22%; PfKRS1: -1.848%.
CN1C(=O)[C@H]2CC[C@@H]1CN(S(=O)(=O)c1ccc(Cl)cc1Cl)C2 read ClpP1P2: 2.748%; PfKRS1: 1.071%.
O=S(=O)(c1ccccc1)N1C[C@@H]2CCCCN(Cc3cccs3)[C@@H]2C1 read ClpP1P2: 14.76%; PfKRS1: -0.5293%.
CCC(=O)N1CCCC1c1nccnc1Nc1nc(C)cc(C)n1 (configuration not stated) read Leishmania in macrophages: 15.18%; ClpP1P2: 9.171%; Toxoplasma: -49.39%; PfKRS1: 5.605%.
CCC(=O)N1CCN(C(=O)Nc2ccc(Cl)cc2)[C@H]2CS(=O)(=O)C[C@H]21 read ClpP1P2: -1.822%; PfKRS1: 4.744%.
O=C(O)Cn1ccc(=O)c2ccccc21 read Leishmania in macrophages: 42.36%; ClpP1P2: -8.829%; Toxoplasma: -12.09%; PfKRS1: 1.808%.
NC(=O)C1CCN(CCCc2ccc(C(F)(F)F)cc2)CC1 read Leishmania in macrophages: 12.36%; ClpP1P2: -7.065%; Toxoplasma: 0.3386%; PfKRS1: 0.3918%.
COCCN1CCO[C@@H]2CN(C(=O)NCc3cccnc3)CC[C@@H]2C1 read ClpP1P2: 10.27%; PfKRS1: 2.891%.
CNC(=O)[C@H]1C[C@H]2OCC[C@H]2N(Cc2ccc(F)cc2)C1 read ClpP1P2: -4.973%; PfKRS1: 0.6846%.
CCCc1n[nH]c(C2CN(C(=O)CCCn3ccnc3C)CCO2)n1 (configuration not stated) read Leishmania in macrophages: 52.76%; ClpP1P2: -2.055%; Toxoplasma: 2.072%; PfKRS1: 4.797%.
Cc1cccc2c1nc(CCO)n2-c1ccc(C(=O)N2CCCC2)o1 read Leishmania in macrophages: 29.49%; ClpP1P2: -11.93%; Toxoplasma: 1.902%; PfKRS1: -0.5817%.
O=C(CCNc1ncccn1)N1CCN(c2nccs2)CC1 read Leishmania in macrophages: 12.45%; ClpP1P2: -27.5%; Toxoplasma: -4.4%; PfKRS1: 0.5434%.
COCCOC1CCN(C(=O)NCc2cc(C)oc2C)CC1 read Leishmania in macrophages: 17.3%; ClpP1P2: 0.5959%; Toxoplasma: -12.82%; PfKRS1: -1.168%.
O=c1ccc2c(n1Cc1cccnc1)CCN(Cc1ccoc1)CC2 read ClpP1P2: 11.22%; PfKRS1: 4.83%.

The first 2 entries again:

* CC(=O)N1N=C(COc2ccc(C)cc2)OC1c1ccc(N(C)C)cc1 (configuration not stated) : Leishmania in macrophages: 54.92%; ClpP1P2: 5.997%; Toxoplasma: 19.16%; PfKRS1: 7.036%
* CNCC(=O)N1CCC(c2ccnc(Nc3ccc(C)cn3)n2)C1.Cl (configuration not stated) : Leishmania in macrophages: 33.03%; Toxoplasma: 25.94%